# Measurements reported in PubChem BioAssay AID504444 (National Center for Advancing Translational Sciences (NCATS), 2011).
# The whole screen tested about 360,000 compounds, of which about 7,500 (2.1%) were called active. Inconclusive means that the source gave no clear call. Such entries were picked first, then a sample of the others. Calls come from the whole dose curve; as a rule, active = well fitted inhibition curve with a large enough effect; inconclusive = small, poorly fitted or top-dose-only effect, or effect the other way; inactive = flat fitted curve, though single readings scatter. Potencies of inconclusive entries are doubtful fits and often do not repeat.
# Test: Nrf2 qHTS screen for inhibitors; note: nearly all actives have a fitted effect of over 60% in size
# Settings: A549 ARE-Fluc reporter, luciferase luminescence, 18-24 h; series mostly up to 46 µM
# Outline: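 Nrf2 activity is the BugLite luminescence, read 15 min after reagent at room temperature, following CellTiter-Fluor cytotoxicity readout (30 min, 37C). Compound titrations were applied for 18-24 h to 5000 A549 ARE_Fluc cells/well in 5% FBS OPTI-MEM.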
# Potency is the fitted concentration of half-maximal effect.
row,Structure (SMILES),Potency
1,COc1ccc(CCN(Cc2cc3ccc(C)cc3n3nnnc23)C(C)=O)cc1OC,"inconclusive: 20.6 µM [falling, single point]"
2,O=C(NC(=S)Nc1ccc(N2CCOCC2)cc1)c1ccccc1,"inconclusive: 29.1 µM [falling, single point]"
3,Cc1cccc(NC(=O)CSc2nc3ccccc3nc2N2CC(C)OC(C)C2)c1 (stereo not given),"inconclusive: 18.4 µM [falling, partial curve, poor fit]"
4,O=C(Nc1ccccc1)OCC1COC(c2ccccc2)(c2ccccc2)O1 (stereo not given),"inconclusive: 32.6 µM [falling, single point]"
5,CCN(CC(=O)NCc1ccc(F)cc1)C(=O)Cc1ccc(OC)cc1,inactive
6,CCc1ccc(CNC(=O)c2cnc3sc(N4CCCCCC4)nn3c2=O)cc1,"inconclusive: 2.31 µM [activator, partial curve, poor fit]"
7,CCOC(=O)/C(O)=C(\C#N)c1nc2ccccc2[nH]1,"inconclusive: 0.146 µM [activator, full curve, poor fit]"
8,COc1cc(/C=C/C(=O)O)cc(S(=O)(=O)Nc2ccccc2C(=O)NCCc2ccccc2)c1OC,"inconclusive: 29.1 µM [activator, single point]"
9,O=C(COC(=O)c1ccccc1Cl)NCCC1=CCCCC1,"inconclusive: 23.1 µM [activator, single point]"
10,Clc1cccc(/C(Cc2nc3ccccc3[nH]2)=N\Nc2ccccc2)c1,"inconclusive: 32.6 µM [activator, single point]"
11,CN(CCc1ccccn1)C(=O)Nc1ccc(Cl)cc1,"inconclusive: 5.8 µM [activator, full curve, poor fit]"
12,COc1ccc(OC)c(/C=N/NC(=S)NCCc2ccccc2)c1,"inconclusive: 20.6 µM [falling, single point]"
13,C=CCn1c(SCC(=O)N2c3ccccc3Sc3ccccc32)nnc1-c1ccco1,inactive
14,FC(F)(F)c1cccc(Cc2noc(CN3CCC(c4ccncc4)CC3)n2)c1,active: 18.4 µM
15,Cc1cccc(S(=O)(=O)c2c(N)n(-c3ccccc3)c3nc4ccccc4nc23)c1,"inconclusive: 20.6 µM [falling, single point]"
16,COc1cc(-c2nc(-c3ccccc3)c(-c3ccc(F)cc3)[nH]2)cc2c1OCO2,inactive
17,CCn1cnc2cc(NCc3ccc(N(C)C)cc3)ccc21,inactive
18,COc1ccc(-n2ncc3c(N(C)C4CCCCC4)ncnc32)cc1,"inconclusive: 29.1 µM [falling, single point]"
19,O=C(Nc1nnc(S(=O)(=O)N2CCCCCC2)s1)c1ccc(Br)cc1,"inconclusive: 23.1 µM [falling, single point]"
20,CC(=O)c1cccc(OCc2cc(C(=O)NCCC3=CCCCC3)no2)c1,"inconclusive: 3.26 µM [activator, full curve]"
21,COc1ccc(NC(=O)c2ccc(S(=O)(=O)NCc3cccnc3)cc2)cc1,"inconclusive: 16.4 µM [falling, single point]"
22,O=C(NCc1ccco1)/C(=C\c1ccco1)NC(=O)c1ccc(Br)o1,inactive

row,Structure (SMILES),Potency
1,Cc1ccc2oc(-c3cc(NC(=O)c4ncn[nH]4)ccc3O)nc2c1,"inconclusive: 16.4 µM [falling, single point]"
2,O=C(/C=C/c1ccco1)NCCc1ccc(F)cc1,"inconclusive: 16.4 µM [activator, partial curve]"
3,COc1ccc2c(C)cc(SCc3c(C)noc3C)nc2c1,"inconclusive: 7.31 µM [falling, partial curve, poor fit]"
4,COc1c(Cl)cc(C(=O)Nc2cccc(-c3nc4ccccc4[nH]3)c2)cc1Cl,"inconclusive: 23.1 µM [falling, single point]"
5,Cc1ccc(NC2(c3nnnn3-c3c(C)cccc3C)CCCCC2)cc1,inactive
6,Cc1ccc(-c2nc(CS(=O)CC(=O)NCCC(C)C)c(C)o2)cc1 (stereo not given),"inconclusive: 32.6 µM [falling, partial curve, poor fit]"
7,Cc1cc(C)c(Cn2c3ccccc3c3cnn(CC(=O)NCCc4ccccc4)c(=O)c32)c(C)c1,"inconclusive: 9.2 µM [activator, partial curve, poor fit]"
8,C=C(C(=O)c1ccccc1)C(CC(=O)c1ccccc1)c1ccccc1 (stereo not given),active: 23.1 µM
9,O=C(NCc1ccc(F)cc1)c1ccc(CSc2nc3ccncc3n2Cc2ccc(F)cc2)cc1,"inconclusive: 23.1 µM [falling, single point]"
10,Cc1cc(C(=O)Cn2ncc(Cl)c(Cl)c2=O)c(C)n1CC(F)(F)F,"inconclusive: 2.59 µM [activator, full curve, poor fit]"
11,CC(=O)c1ccc(S(=O)(=O)N2CCN(CCOc3ccccc3)CC2)cc1,"inconclusive: 18.4 µM [falling, single point]"
12,O=C(COC(=O)Cn1ccc(=O)[nH]c1=O)Nc1ccc(F)cc1,"inconclusive: 5.8 µM [activator, partial curve, poor fit]"
13,Cc1ccsc1/C=N/NC(=O)c1c[nH]c2ccccc12,"inconclusive: 6.31 µM [activator, full curve]"
14,COc1ccc(C(=O)N(Cc2sccc2C)C2CCS(=O)(=O)C2)cc1Cl (stereo not given),"inconclusive: 13 µM [activator, partial curve, poor fit]"
15,CCOc1ccc(NC(=O)Nc2cccs2)cc1,"inconclusive: 1.46 µM [activator, full curve, poor fit]"
16,CCC1=Nc2cc(C(=O)NCCCOC)ccc2Sc2ccccc21,"inconclusive: 2.31 µM [activator, partial curve, poor fit]"
17,Cc1cc(C)c(S(=O)(=O)Nc2cc(-c3cn4ccccc4n3)ccc2C)cc1C,"inconclusive: 25.9 µM [falling, single point]"
18,CCC(=O)Nc1c(C#N)c2nc3ccccc3nc2n1C1CCCCC1,inactive
19,COc1cc(-c2nc3cnccn3c2Nc2c(C)cccc2C)ccc1O,"inconclusive: 29.1 µM [falling, single point]"
20,O=C(N/N=C1\CC2CC=CC12)c1ccc(O)cc1 (stereo not given),"inconclusive: 23.1 µM [activator, single point]"
21,CCN(C(=O)COC(=O)c1ccccc1NCCO)c1cccc2ccccc12,"inconclusive: 25.9 µM [falling, single point]"
22,Nc1nc(-c2ccc(Cl)cc2)nnc1-c1ccc(Br)cc1,"inconclusive: 1.16 µM [activator, full curve]"

row,Structure (SMILES),Potency
1,O=C(Nc1ccc(F)cc1)Nc1nnc(COc2ccccc2F)s1,"inconclusive: 18.4 µM [falling, single point]"
2,C/C(=N\NC(=O)C1(C)CC1(Br)Br)c1cccc(NC(=O)c2ccc(C)o2)c1 (stereo not given),"inconclusive: 23.1 µM [falling, single point]"
3,CCOc1ccccc1C1CC(=O)NC(C)=C1C(=O)OC1CCCCCC1 (stereo not given),"inconclusive: 23.1 µM [falling, single point]"
4,CCOc1ccccc1-c1cc(C(=O)N/N=C/c2ccc3c(c2)OCO3)c2ccccc2n1,"inconclusive: 29.1 µM [activator, single point]"
5,COC(=O)C(Nc1ccccc1Cl)(c1cc(C)c(O)c(C)c1)C(F)(F)F (stereo not given),"inconclusive: 20.6 µM [falling, single point]"
6,COC(=O)c1ccc(/C=C2\Oc3ccccc3NC2=O)cc1,"inconclusive: 0.731 µM [activator, full curve, poor fit]"
7,Cc1cccc(Oc2nc3ccccn3c(=O)c2/C=C(\C#N)c2nc3ccccc3s2)c1C,inactive
8,COc1cc(Cl)c(C)cc1NC(=O)CCCN1C(=O)C(c2ccccc2)Oc2cccnc21 (stereo not given),"inconclusive: 16.4 µM [falling, single point]"
9,COc1ccc(CCNC(=O)c2ccc3c(c2)CCN3S(=O)(=O)c2ccc(Cl)cc2)cc1,"inconclusive: 18.4 µM [falling, partial curve, poor fit]"
10,Cc1noc(C)c1COC(=O)COc1ccc2c(C)cc(=O)oc2c1,"inconclusive: 16.4 µM [activator, partial curve, poor fit]"
11,Cc1nn(C)c(C)c1Sc1ccccc1N,"inconclusive: 32.6 µM [falling, single point]"
12,O=C(Nc1cccc(O)c1)c1cc(-c2ccco2)on1,"inconclusive: 18.4 µM [activator, partial curve]"
13,Cc1cc(C)c(C)c(S(=O)(=O)N2CCC(C(=O)N3CCN(c4ccc(F)cc4)CC3)CC2)c1C,"inconclusive: 29.1 µM [falling, single point]"
14,O=C(COc1ncnc2ccccc12)c1ccc2c(c1)OCCO2,"inconclusive: 2.06 µM [activator, full curve]"
15,COc1ccc(S(=O)(=O)Oc2ccc3ccccc3c2)cc1,inactive
16,CCCCn1cc(S(=O)(=O)c2ccc(CC)cc2)c(=O)c2cc(F)c(N3CCCC(C)C3)cc21 (stereo not given),inactive
17,CCOc1cccc(OCCCOc2cccc3cccnc23)c1,"inconclusive: 29.1 µM [falling, single point]"
18,COc1ccccc1CCNC(=O)c1ccc(NC(=O)N2CC(C)Sc3ccccc32)cc1 (stereo not given),active: 20.6 µM
19,Cc1ccc(CN2CC(C(=O)N3CCN(S(=O)(=O)c4c(F)cccc4F)CC3)CC2=O)cc1 (stereo not given),"inconclusive: 29.1 µM [falling, single point]"
20,COc1ccc2cc(C(=O)C3CCCN(Cc4cnc(C)s4)C3)ccc2c1 (stereo not given),"inconclusive: 29.1 µM [falling, single point]"
21,Cc1ccc(C(=O)CSc2nc3cc(C(=O)NC4CCCC4)ccc3c(=O)n2CC2CCCO2)cc1 (stereo not given),"inconclusive: 29.1 µM [activator, single point]"

# Single values from the results shown:
# For Potency, CCOc1cccc(OCCCOc2cccc3cccnc23)c1 is listed with inconclusive: 29.1 µM [falling, single point]
# For Potency, O=C(COc1ncnc2ccccc12)c1ccc2c(c1)OCCO2 is listed with inconclusive: 2.06 µM [activator, full curve]
# For Potency, COc1ccccc1CCNC(=O)c1ccc(NC(=O)N2CC(C)Sc3ccccc32)cc1 (stereo not given) is listed with active: 20.6 µM
# For Potency, Cc1noc(C)c1COC(=O)COc1ccc2c(C)cc(=O)oc2c1 is listed with inconclusive: 16.4 µM [activator, partial curve, poor fit]
